These are yes or no findings as the source states them, for the method shown. Binding seen in cells or lysates may run through a third protein. Some results given as binding are weak or reduced against the parent protein; the word gives no strength. Sequences can lack the tags named with a protein.

This passage reports binding results from PMC9016070.

For this experiment, the target named is T1, FLAG-tagged GBP2 (guanylate-binding protein 2) (UniProt P32456).
T1 sequence: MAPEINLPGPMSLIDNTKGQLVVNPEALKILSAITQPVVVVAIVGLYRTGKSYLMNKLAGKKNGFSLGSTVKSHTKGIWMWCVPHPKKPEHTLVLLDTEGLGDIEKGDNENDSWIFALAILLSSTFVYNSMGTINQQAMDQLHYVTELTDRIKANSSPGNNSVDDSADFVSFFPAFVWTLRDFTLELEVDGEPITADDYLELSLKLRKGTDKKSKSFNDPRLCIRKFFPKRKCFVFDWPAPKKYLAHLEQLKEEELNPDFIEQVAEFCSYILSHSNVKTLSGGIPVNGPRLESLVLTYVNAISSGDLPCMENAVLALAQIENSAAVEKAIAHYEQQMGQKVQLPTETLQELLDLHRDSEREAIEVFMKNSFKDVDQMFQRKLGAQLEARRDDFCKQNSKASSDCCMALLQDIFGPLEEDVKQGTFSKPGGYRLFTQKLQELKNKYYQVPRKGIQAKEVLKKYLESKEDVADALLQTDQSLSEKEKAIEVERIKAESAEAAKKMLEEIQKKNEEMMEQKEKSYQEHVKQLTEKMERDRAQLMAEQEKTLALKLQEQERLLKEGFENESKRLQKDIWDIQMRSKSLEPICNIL
Briefly: co-IP; anti-FLAG immunoprecipitation from 1 mg whole-cell extract of cells overexpressing FLAG-tagged GBP2 or KIF22 (293T by the methods, 'glioma cells' by the results), low-salt lysis buffer, 2 h at 4 °C, three washes; SDS-PAGE and blot.

B1: kinesin family member 22 (KIF22) (protein, UniProt Q14807 1-665)
chain: MAAGGSTQQRRREMAAASAAAISGAGRCRLSKIGATRRPPPARVRVAVRLRPFVDGTAGASDPPCVRGMDSCSLEIANWRNHQETLKYQFDAFYGERSTQQDIYAGSVQPILRHLLEGQNASVLAYGPTGAGKTHTMLGSPEQPGVIPRALMDLLQLTREEGAEGRPWALSVTMSYLEIYQEKVLDLLDPASGDLVIREDCRGNILIPGLSQKPISSFADFERHFLPASRNRTVGATRLNQRSSRSHAVLLVKVDQRERLAPFRQREGKLYLIDLAGSEDNRRTGNKGLRLKESGAINTSLFVLGKVVDALNQGLPRVPYRDSKLTRLLQDSLGGSAHSILIANIAPERRFYLDTVSALNFAARSKEVINRPFTNESLQPHALGPVKLSQKELLGPPEAKRARGPEEEEIGSPEPMAAPASASQKLSPLQKLSSMDPAMLERLLSLDRLLASQGSQGAPLLSTPKRERMVLMKTVEEKDLEIERLKTKQKELEAKMLAQKAEEKENHCPTMLRPLSHRTVTGAKPLKKAVVMPLQLIQEQAASPNAEIHILKNKGRKRKLESLDALEPEEKAEDCWELQISPELLAHGRQKILDLLNEGSARDLRSLQRIGPKKAQLIVGWRELHGPFSQVEDLERVEGITGKQMESFLKANILGLAAGQRCGAS
For the molecule B1, the binding entry is reported as “binds”.
